Test results from the supplement of paper PMC10849652.
The list shows a part of the results.

Amino acid sequences for entries named in this document (tags omitted). A change or cut given only in a name is not applied to a line headed by its entry.
UniProt P12318: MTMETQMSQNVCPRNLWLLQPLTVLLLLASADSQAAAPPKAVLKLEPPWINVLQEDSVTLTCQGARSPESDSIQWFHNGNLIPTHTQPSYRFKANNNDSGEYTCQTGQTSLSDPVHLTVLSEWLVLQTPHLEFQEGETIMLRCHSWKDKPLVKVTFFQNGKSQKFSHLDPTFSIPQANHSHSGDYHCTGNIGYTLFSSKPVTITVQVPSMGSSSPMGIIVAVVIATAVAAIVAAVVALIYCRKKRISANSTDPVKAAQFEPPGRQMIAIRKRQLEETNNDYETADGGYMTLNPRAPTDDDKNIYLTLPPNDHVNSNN
UniProt Q6UN15: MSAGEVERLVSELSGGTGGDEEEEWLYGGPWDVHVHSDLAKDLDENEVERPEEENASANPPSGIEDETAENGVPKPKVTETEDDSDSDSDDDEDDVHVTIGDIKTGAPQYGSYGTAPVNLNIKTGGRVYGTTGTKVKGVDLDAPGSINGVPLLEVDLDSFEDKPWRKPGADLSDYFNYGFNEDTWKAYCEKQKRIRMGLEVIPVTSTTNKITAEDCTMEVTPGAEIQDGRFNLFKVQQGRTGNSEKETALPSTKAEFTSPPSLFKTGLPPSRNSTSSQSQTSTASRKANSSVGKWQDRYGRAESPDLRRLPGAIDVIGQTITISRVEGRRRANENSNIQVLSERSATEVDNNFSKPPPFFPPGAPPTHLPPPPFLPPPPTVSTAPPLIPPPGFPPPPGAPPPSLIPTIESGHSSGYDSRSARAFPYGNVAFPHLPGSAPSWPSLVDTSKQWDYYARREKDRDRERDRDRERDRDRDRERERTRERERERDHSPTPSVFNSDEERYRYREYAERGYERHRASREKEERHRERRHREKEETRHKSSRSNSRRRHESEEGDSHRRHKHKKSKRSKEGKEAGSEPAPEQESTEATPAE
UniProt P35916, whole entry, looked up: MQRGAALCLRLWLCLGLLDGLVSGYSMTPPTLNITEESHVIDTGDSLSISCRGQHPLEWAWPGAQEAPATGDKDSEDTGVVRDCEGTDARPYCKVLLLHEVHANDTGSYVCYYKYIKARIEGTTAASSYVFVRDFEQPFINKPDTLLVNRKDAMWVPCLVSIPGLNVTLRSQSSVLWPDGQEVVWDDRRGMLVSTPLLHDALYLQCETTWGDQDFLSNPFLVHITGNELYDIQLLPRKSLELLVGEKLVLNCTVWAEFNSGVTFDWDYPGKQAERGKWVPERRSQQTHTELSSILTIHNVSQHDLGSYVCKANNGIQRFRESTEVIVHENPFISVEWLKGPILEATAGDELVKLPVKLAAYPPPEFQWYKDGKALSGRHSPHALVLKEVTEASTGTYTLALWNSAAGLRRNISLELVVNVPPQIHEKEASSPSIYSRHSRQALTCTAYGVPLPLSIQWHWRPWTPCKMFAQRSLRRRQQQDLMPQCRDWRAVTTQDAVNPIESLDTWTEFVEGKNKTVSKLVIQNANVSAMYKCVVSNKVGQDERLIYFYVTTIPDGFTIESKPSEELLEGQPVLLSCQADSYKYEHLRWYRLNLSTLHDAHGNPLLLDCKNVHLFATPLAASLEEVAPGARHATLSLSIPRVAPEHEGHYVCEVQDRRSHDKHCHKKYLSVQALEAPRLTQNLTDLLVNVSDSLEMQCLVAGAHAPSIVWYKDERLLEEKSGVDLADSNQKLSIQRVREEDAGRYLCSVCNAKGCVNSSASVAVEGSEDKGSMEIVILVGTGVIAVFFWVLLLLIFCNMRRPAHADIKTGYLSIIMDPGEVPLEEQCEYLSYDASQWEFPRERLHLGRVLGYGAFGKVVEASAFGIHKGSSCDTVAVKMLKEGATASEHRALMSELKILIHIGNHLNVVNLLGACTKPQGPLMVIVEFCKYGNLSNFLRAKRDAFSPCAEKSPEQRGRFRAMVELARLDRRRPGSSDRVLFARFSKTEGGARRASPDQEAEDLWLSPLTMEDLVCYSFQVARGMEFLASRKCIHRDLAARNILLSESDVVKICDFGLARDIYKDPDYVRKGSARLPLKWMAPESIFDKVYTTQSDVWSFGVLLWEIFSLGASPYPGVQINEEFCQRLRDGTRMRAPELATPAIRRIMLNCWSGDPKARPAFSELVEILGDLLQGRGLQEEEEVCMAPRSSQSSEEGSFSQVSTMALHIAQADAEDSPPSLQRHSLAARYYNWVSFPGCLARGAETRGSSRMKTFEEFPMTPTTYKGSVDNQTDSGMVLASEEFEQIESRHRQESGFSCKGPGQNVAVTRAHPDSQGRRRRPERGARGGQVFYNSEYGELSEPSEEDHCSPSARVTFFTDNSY
UniProt Q9NXK8: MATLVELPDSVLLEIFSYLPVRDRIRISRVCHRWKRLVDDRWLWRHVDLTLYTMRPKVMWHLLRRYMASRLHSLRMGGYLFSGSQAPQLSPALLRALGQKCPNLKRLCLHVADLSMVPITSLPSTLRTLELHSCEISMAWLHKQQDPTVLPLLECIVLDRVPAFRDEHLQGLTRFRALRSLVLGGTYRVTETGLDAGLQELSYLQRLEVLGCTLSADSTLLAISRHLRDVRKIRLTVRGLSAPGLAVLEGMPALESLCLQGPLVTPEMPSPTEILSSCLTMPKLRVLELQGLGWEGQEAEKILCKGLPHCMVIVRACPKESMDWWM
UniProt Q9UIM3: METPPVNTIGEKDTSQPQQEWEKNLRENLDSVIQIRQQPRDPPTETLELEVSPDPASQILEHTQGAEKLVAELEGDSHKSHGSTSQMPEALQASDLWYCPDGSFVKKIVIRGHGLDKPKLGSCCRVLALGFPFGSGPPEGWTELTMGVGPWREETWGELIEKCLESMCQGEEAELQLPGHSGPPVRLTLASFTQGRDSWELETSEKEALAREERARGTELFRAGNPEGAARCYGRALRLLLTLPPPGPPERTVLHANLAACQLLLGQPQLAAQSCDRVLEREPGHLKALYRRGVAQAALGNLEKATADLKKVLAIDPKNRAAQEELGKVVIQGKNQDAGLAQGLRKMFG
UniProt P10109: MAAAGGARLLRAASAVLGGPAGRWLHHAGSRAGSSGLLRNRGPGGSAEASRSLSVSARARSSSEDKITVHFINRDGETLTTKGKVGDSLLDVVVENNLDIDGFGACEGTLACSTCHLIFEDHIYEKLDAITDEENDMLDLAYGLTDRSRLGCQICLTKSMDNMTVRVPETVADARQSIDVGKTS
UniProt Q13643: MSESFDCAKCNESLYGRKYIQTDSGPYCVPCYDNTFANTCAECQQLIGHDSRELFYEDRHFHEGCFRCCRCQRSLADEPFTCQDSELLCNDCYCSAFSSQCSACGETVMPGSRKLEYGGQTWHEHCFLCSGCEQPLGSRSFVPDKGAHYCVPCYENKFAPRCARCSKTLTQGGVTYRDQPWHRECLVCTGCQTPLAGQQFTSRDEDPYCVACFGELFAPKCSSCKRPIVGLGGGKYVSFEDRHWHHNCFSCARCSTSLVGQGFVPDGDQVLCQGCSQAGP
UniProt Q8WVX9: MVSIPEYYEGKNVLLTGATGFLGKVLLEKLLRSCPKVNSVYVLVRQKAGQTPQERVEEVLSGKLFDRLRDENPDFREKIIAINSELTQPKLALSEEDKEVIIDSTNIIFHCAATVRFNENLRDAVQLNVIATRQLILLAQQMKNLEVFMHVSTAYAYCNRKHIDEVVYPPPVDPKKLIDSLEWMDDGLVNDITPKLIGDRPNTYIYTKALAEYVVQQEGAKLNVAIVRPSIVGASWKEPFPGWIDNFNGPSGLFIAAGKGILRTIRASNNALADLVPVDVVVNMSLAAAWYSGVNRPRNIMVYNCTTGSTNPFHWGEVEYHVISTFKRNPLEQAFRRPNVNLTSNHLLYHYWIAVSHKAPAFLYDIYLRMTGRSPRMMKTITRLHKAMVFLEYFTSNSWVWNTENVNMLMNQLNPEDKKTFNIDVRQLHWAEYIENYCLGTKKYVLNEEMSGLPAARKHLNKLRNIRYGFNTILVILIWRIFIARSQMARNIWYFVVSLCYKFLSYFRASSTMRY
UniProt P02751, whole entry, looked up: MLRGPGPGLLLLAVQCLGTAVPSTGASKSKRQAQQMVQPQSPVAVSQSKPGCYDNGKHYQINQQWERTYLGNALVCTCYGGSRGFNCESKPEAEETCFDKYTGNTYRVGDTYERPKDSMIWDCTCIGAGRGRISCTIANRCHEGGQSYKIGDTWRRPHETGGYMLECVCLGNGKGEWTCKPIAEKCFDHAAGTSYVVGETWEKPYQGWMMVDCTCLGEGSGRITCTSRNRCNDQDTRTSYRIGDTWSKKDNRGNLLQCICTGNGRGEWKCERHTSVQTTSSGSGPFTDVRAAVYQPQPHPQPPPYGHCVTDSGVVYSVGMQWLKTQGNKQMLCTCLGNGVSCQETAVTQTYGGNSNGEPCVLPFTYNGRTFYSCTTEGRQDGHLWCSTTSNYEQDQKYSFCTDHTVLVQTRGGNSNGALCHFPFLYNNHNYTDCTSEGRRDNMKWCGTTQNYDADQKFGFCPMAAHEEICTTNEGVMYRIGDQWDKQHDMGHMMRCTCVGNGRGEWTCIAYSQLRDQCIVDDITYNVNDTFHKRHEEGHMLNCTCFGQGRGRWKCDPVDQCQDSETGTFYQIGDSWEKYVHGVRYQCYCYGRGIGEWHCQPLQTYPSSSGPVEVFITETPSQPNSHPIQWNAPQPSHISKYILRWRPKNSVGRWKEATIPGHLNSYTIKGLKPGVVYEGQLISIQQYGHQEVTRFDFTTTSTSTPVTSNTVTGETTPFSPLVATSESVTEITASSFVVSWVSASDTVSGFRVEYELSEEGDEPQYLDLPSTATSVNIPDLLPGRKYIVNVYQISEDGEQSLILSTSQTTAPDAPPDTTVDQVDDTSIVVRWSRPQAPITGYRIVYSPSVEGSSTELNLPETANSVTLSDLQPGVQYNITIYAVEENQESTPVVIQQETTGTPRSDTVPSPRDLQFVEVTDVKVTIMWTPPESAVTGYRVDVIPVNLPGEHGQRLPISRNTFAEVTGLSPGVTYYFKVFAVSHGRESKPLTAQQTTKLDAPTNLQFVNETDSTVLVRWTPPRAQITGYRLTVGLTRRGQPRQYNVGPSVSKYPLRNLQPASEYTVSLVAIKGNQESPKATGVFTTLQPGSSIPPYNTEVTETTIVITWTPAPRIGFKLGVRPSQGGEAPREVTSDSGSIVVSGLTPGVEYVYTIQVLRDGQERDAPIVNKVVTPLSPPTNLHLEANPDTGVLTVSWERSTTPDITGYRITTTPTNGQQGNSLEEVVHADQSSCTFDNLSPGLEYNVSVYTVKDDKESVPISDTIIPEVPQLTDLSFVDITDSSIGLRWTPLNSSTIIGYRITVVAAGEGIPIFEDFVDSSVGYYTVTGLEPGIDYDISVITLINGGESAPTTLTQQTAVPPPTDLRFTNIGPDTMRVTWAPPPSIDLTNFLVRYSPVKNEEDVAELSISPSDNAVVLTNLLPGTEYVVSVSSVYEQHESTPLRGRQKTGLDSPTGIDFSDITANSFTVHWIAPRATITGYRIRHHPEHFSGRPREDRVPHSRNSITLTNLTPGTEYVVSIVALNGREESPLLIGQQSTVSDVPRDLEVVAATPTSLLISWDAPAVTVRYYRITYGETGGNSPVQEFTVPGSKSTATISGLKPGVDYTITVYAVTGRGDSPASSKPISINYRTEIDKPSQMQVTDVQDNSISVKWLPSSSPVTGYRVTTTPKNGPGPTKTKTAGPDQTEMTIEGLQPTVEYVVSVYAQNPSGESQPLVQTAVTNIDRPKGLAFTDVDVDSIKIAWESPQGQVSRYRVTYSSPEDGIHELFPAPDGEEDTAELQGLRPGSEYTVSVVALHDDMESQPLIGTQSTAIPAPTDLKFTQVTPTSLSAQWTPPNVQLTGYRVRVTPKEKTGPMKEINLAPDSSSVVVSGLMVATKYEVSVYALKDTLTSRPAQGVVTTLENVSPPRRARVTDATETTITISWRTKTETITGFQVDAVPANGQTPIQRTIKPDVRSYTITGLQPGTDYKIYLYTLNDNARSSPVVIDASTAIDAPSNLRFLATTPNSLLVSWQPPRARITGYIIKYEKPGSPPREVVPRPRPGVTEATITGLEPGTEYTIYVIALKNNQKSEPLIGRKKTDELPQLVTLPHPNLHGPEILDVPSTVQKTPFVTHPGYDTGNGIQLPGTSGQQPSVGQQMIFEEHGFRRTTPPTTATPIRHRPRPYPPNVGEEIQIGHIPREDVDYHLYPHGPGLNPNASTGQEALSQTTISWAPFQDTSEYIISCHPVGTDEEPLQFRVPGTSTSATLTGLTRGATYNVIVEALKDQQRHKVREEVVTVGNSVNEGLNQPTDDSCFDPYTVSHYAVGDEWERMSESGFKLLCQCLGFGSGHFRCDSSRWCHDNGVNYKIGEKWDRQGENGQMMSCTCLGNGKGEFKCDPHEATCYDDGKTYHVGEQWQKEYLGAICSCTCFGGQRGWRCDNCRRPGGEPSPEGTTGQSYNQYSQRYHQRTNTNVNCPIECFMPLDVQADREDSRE
UniProt Q9Y3D6: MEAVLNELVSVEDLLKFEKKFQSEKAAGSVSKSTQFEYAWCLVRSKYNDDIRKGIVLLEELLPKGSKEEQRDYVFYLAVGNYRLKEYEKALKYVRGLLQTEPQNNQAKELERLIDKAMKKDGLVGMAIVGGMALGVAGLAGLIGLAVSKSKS

Each target was assayed with CC[C@H](C)[C@@H](C(=O)N[C@@H]([C@@H](C)O)C(=O)N[C@@H](CC(C)C)C(=O)[C@]1(CO1)C)NC(=O)[C@H]([C@@H](C)CC)N(C)C(=O)C [epoxomicin] (assay: log2 fold change, soluble protein after heating vs DMSO (PISA); higher = thermal stabilisation; K562 cells, 10 uM, 30 min; active = over 0.2 and 3.5 SD of the protein, either way, in both replicates (recomputed)).
Summary of the method: (§1)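 K562 cells at 2×10^6 cells/mL were given 10 μM compound for 30 min. Aliquots then went through 3 min of heating across 48°C-58°C, were pooled, and were extracted in PBS with 0.5% NP-40 at 4°C, and the supernatant after 21,000xg for 90 min was quantified by TMTpro 16plex LC-MS/MS with channel sums equalised. Thermal stability relative to control samples, from duplicates, is given as log2 fold change.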
FN3KRP (UniProt Q9HA64) was tested, and the log2 fold change was inactive: -0.062.
For FCGR2A (UniProt P12318), the log2 fold change was inactive: 0.006.
FKRP (UniProt Q9H9S5) was tested, and the log2 fold change was inactive: -0.007.
For FDXR isoform 7 (UniProt P22570), the log2 fold change was inactive: 0.059.
For FIP1L1 (UniProt Q6UN15), the log2 fold change was inactive: -0.061.
FAM234A (UniProt Q9H0X4) was tested, and the log2 fold change was inactive: 0.031.
FLNA (UniProt P21333) was tested, and the log2 fold change was inactive: 0.063.
In the case of FAM98A (UniProt Q8NCA5), the log2 fold change is reported as inactive: -0.103.
With FLT4 (UniProt P35916) the log2 fold change was inactive: 0.066.
With FBXL12 (UniProt Q9NXK8) the log2 fold change was inactive: -0.024.
For FKBPL (UniProt Q9UIM3), the log2 fold change was inactive: 0.047.
FDX1 (UniProt P10109) was tested, and the log2 fold change was inactive: 0.043.
For FAM219A (UniProt Q8IW50), the log2 fold change was inactive: 0.099.
FAM91A1 (UniProt Q658Y4) was tested, and the log2 fold change was active: -0.675.
For FBXO30 (UniProt Q8TB52), the log2 fold change was inactive: 0.027.
For FBXO7 (UniProt Q9Y3I1), the log2 fold change was inactive: -0.012.
With FAM76B (UniProt Q5HYJ3) the log2 fold change was inactive: -0.017.
With FAM3A (UniProt P98173) the log2 fold change was inactive: 0.029.
In the case of FANCB (UniProt Q8NB91), the log2 fold change is reported as inactive: 0.013.
With FECH isoform 2 (UniProt P22830) the log2 fold change was inactive: -0.088.
In the case of FHL3 (UniProt Q13643), the log2 fold change is reported as inactive: 0.018.
FKBP9 (UniProt O95302) was tested, and the log2 fold change was inactive: -0.03.
In the case of FAM49B (UniProt Q9NUQ9), the log2 fold change is reported as inactive: -0.024.
For FASTKD2 (UniProt Q9NYY8), the log2 fold change was inactive: 0.012.
FGF13 isoform 3 (UniProt Q92913) was tested, and the log2 fold change was inactive: 0.04.
For FERMT3 (UniProt Q86UX7), the log2 fold change was inactive: 0.019.
For FBXO6 (UniProt Q9NRD1), the log2 fold change was inactive: -0.029.
For FBL (UniProt P22087), the log2 fold change was inactive: -0.396.
FNBP4 isoform 2 (UniProt Q8N3X1) was tested, and the log2 fold change was inactive: -0.011.
For FAR1 (UniProt Q8WVX9), the log2 fold change was inactive: 0.07.
For FBH1 isoform 2 (UniProt Q8NFZ0), the log2 fold change was inactive: 0.182.
For FARS2 (UniProt O95363), the log2 fold change was inactive: -0.034.
FN1 isoform 1 (UniProt P02751) was tested, and the log2 fold change was inactive: -0.198.
With FKBP4 (UniProt Q02790) the log2 fold change was inactive: 0.033.
In the case of FKBP5 (UniProt Q13451), the log2 fold change is reported as inactive: 0.029.
With FAT3 isoform 1 (UniProt Q8TDW7) the log2 fold change was inactive: -0.06.
For FAM210A (UniProt Q96ND0), the log2 fold change was inactive: 0.01.
For FIS1 (UniProt Q9Y3D6), the log2 fold change was inactive: -0.002.
For FBXW9 (UniProt Q5XUX1), the log2 fold change was inactive: -0.012.

These targets were tested with CCn1c(C(=O)N(C2CC2)C2CC2)cc2c3c(ncn3C)c(Nc3cc(C)n(C)n3)nc21 in the same assay as above.
Summary of the method: as §1
For FN3KRP (UniProt Q9HA64), the log2 fold change was inactive: 0.032.
With FCGR2A (UniProt P12318) the log2 fold change was inactive: -0.042.
In the case of FKRP (UniProt Q9H9S5), the log2 fold change is reported as inactive: 0.008.
With FIP1L1 (UniProt Q6UN15) the log2 fold change was inactive: 0.005.
In the case of FAM234A (UniProt Q9H0X4), the log2 fold change is reported as inactive: -0.013.
In the case of FAM98A (UniProt Q8NCA5), the log2 fold change is reported as inactive: -0.098.
In the case of FLT4 (UniProt P35916), the log2 fold change is reported as inactive: 0.032.
In the case of FBXL12 (UniProt Q9NXK8), the log2 fold change is reported as inactive: -0.052.
In the case of FKBPL (UniProt Q9UIM3), the log2 fold change is reported as inactive: -0.002.
FDX1 (UniProt P10109) was tested, and the log2 fold change was inactive: 0.036.
With FAM219A (UniProt Q8IW50) the log2 fold change was inactive: -0.115.
For FBXO30 (UniProt Q8TB52), the log2 fold change was inactive: -0.017.
For FAM76B (UniProt Q5HYJ3), the log2 fold change was inactive: -0.014.
For FANCB (UniProt Q8NB91), the log2 fold change was inactive: -0.017.
For FHL3 (UniProt Q13643), the log2 fold change was inactive: 0.018.
In the case of FKBP9 (UniProt O95302), the log2 fold change is reported as inactive: -0.013.
In the case of FAM49B (UniProt Q9NUQ9), the log2 fold change is reported as inactive: -0.029.
For FASTKD2 (UniProt Q9NYY8), the log2 fold change was inactive: 0.007.
In the case of FGF13 isoform 3 (UniProt Q92913), the log2 fold change is reported as inactive: 0.029.
With FNBP4 isoform 2 (UniProt Q8N3X1) the log2 fold change was inactive: 0.016.
With FAR1 (UniProt Q8WVX9) the log2 fold change was inactive: 0.015.
With FBH1 isoform 2 (UniProt Q8NFZ0) the log2 fold change was inactive: 0.028.
With FN1 isoform 1 (UniProt P02751) the log2 fold change was inactive: -0.044.
FKBP5 (UniProt Q13451) was tested, and the log2 fold change was inactive: -0.083.
In the case of FAT3 isoform 1 (UniProt Q8TDW7), the log2 fold change is reported as inactive: 0.011.
For FAM210A (UniProt Q96ND0), the log2 fold change was inactive: -0.002.
With FBXW9 (UniProt Q5XUX1) the log2 fold change was inactive: 0.019.

These targets were tested with CCn1cc(-c2ccnc3[nH]c(-c4cccc(CN(C)C)c4)cc23)c(-c2ccc(NC(=O)N(C)C)cc2)n1 in the same assay as above.
Summary of the method: as §1
In the case of FN3KRP (UniProt Q9HA64), the log2 fold change is reported as inactive: -0.016.
For FCGR2A (UniProt P12318), the log2 fold change was inactive: -0.133.
FKRP (UniProt Q9H9S5) was tested, and the log2 fold change was inactive: 0.084.
FDXR isoform 7 (UniProt P22570) was tested, and the log2 fold change was inactive: -0.144.
With FIP1L1 (UniProt Q6UN15) the log2 fold change was inactive: 0.093.
With FLNA (UniProt P21333) the log2 fold change was inactive: -0.004.
FAM98A (UniProt Q8NCA5) was tested, and the log2 fold change was inactive: -0.064.
With FLT4 (UniProt P35916) the log2 fold change was inactive: 0.03.
For FBXL12 (UniProt Q9NXK8), the log2 fold change was inactive: 0.02.
In the case of FKBPL (UniProt Q9UIM3), the log2 fold change is reported as inactive: -0.047.
For FDX1 (UniProt P10109), the log2 fold change was inactive: -0.018.
With FAM91A1 (UniProt Q658Y4) the log2 fold change was inactive: -0.015.
FBXO30 (UniProt Q8TB52) was tested, and the log2 fold change was inactive: -0.065.
With FBXO7 (UniProt Q9Y3I1) the log2 fold change was active: -0.295.
In the case of FAM76B (UniProt Q5HYJ3), the log2 fold change is reported as inactive: -0.046.
FAM3A (UniProt P98173) was tested, and the log2 fold change was inactive: 0.066.
For FANCB (UniProt Q8NB91), the log2 fold change was inactive: 0.034.
For FECH isoform 2 (UniProt P22830), the log2 fold change was inactive: 0.203.
In the case of FHL3 (UniProt Q13643), the log2 fold change is reported as inactive: 0.011.
FKBP9 (UniProt O95302) was tested, and the log2 fold change was inactive: 0.035.
With FAM49B (UniProt Q9NUQ9) the log2 fold change was inactive: -0.031.
For FASTKD2 (UniProt Q9NYY8), the log2 fold change was inactive: -0.032.
For FGF13 isoform 3 (UniProt Q92913), the log2 fold change was inactive: 0.047.
In the case of FERMT3 (UniProt Q86UX7), the log2 fold change is reported as inactive: -0.04.
In the case of FBXO6 (UniProt Q9NRD1), the log2 fold change is reported as inactive: -0.038.
In the case of FBL (UniProt P22087), the log2 fold change is reported as inactive: 0.184.
With FNBP4 isoform 2 (UniProt Q8N3X1) the log2 fold change was inactive: -0.006.
For FAR1 (UniProt Q8WVX9), the log2 fold change was inactive: 0.037.
In the case of FBH1 isoform 2 (UniProt Q8NFZ0), the log2 fold change is reported as inactive: 0.09.
With FARS2 (UniProt O95363) the log2 fold change was inactive: -0.052.
In the case of FN1 isoform 1 (UniProt P02751), the log2 fold change is reported as inactive: -0.011.
For FKBP4 (UniProt Q02790), the log2 fold change was inactive: -0.051.
With FKBP5 (UniProt Q13451) the log2 fold change was inactive: -0.009.
FAM210A (UniProt Q96ND0) was tested, and the log2 fold change was inactive: -0.015.
For FIS1 (UniProt Q9Y3D6), the log2 fold change was inactive: 0.008.
